Results: paper PMC5605572
The exact form of at least one protein or probe is not confirmed. A weaker result is weaker than the reference pair of the same experiment.

Chains of the proteins cited; added tags and fusions are not shown.
UniProt P28159, whole entry S269D: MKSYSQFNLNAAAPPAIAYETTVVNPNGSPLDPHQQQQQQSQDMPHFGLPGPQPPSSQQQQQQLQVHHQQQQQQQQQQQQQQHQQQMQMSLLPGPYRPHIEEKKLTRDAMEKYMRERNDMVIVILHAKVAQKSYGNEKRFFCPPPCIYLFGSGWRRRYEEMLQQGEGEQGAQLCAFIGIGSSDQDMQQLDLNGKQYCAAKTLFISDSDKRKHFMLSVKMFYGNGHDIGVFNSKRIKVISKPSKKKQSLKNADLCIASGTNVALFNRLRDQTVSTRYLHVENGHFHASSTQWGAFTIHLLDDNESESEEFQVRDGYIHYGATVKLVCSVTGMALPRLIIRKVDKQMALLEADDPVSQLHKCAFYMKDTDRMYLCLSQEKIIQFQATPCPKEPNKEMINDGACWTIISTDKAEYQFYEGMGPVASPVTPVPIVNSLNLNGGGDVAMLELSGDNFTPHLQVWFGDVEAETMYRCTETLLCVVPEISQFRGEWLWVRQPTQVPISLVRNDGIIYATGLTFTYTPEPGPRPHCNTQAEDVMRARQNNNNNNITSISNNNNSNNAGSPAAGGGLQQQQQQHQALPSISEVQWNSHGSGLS

Target: Su(H) S269D (Drosophila melanogaster) (UniProt P28159)
Experiment: EMSA
Details: very weak binding; EMSA: 10 mM Tris-HCl pH 7.5, 50 mM NaCl, 1 mM EDTA, 0.0275 ug/ul salmon sperm DNA; protein translated in vitro; label: radiolabelled (EMSA), unlabelled as competitor

“TTGGGTGGCTCGTGGCGTGGGAACCGAGCTGAAAG / GGTTCTTTCAGCTCGGTTCCCACGCCACGAGCCAC [E(spl)m8-S1]”: binds more weakly.
